The target in experiment [1] is myc-Plk1 (polo-like kinase 1) (UniProt P53350). Description: co-IP; 293T cells co-transfected with pCMV myc-Plk1 and pCMV FLAG-Cdk7 or FLAG-Cdk9; total cell extracts immunoprecipitated with myc antibody, immunoblotted with FLAG antibody; lysis buffer 50 mM TrisCl pH 8.0, 150 mM NaCl, 0.5% Triton X-100, 4 °C.
In experiment [2] the target is GST-Cdk9 (human) (UniProt P50750). Briefly: pull-down; GST pull-down; purified His-Plk1 incubated with GST-tagged protein immobilized on Sepharose 4B-glutathione beads, 4 °C, 1 h, washed with lysis buffer; bound protein detected with Plk1 antibody; both purified.
In experiment [3] the target is GST-cyclin T1 (481-630) (human) (UniProt O60563). Described as above.
The target in experiment [4] is GST-cyclin T1 (human) (UniProt O60563). The description is as above.
Experiment [5] concerns the target GST-Plk1 PBD H538A/K540A (UniProt P53350). Briefly: pull-down; GST pull-down; 293T cell lysate incubated with immobilized GST-Plk1 PBD or GST-Plk1 PBD H538A/K540A, 4 °C, 1 h; immunoblotting with Cdk9 and cyclin T1 antibodies; only the target purified.
The target in experiment [6] is GST-Plk1 polo-box domain (PBD) (330-603) (UniProt P53350). The experiment is described as above.
The target in experiment [7] is FLAG-Plk1 (polo-like kinase 1) (UniProt P53350). Briefly: co-IP; 293T cells transfected with pCMV FLAG-Plk1, its KD (K82R) or deletion mutants; extracts immunoprecipitated with FLAG antibody beads, immunoblotted with Cdk9 and cyclin T1 antibodies (endogenous); lysis buffer 50 mM TrisCl pH 8.0, 150 mM NaCl, 0.5% Triton X-100, 4 °C.
Experiment [8] addresses FLAG-Plk1 KD (K82R), kinase-defective mutant (UniProt P53350). The experiment is described as above.
In experiment [9] the target is FLAG-Plk1(1-330) (UniProt P53350). Described as above.
In experiment [10] the target is FLAG-Plk1(330-603) (UniProt P53350). The experiment is described as above.
In experiment [11] the target is endogenous Plk1 (HeLa) (human (endogenous in HeLa)) (UniProt P53350). Description: co-IP; endogenous proteins; HeLa cells synchronized in M phase by Nocodazole; lysates immunoprecipitated with Plk1 antibody (normal mouse serum as control), immunoblotted with Cdk9, cyclin T1 and Plk1 antibodies.

The chains behind the UniProt entries cited, without tags or fusion partners. Where a name states a change or a piece, a line headed by the entry shows the natural chain unless it says otherwise. Residues count along the entry.
UniProt P50750: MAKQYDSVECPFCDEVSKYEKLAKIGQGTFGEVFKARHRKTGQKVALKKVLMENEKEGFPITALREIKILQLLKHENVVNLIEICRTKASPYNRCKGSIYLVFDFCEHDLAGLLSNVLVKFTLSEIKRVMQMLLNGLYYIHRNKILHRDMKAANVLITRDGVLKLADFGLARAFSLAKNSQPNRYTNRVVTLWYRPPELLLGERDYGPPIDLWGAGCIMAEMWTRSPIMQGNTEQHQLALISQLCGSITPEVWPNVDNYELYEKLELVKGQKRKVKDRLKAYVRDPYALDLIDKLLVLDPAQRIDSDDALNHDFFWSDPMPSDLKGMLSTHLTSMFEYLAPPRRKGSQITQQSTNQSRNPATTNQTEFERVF
UniProt O60563: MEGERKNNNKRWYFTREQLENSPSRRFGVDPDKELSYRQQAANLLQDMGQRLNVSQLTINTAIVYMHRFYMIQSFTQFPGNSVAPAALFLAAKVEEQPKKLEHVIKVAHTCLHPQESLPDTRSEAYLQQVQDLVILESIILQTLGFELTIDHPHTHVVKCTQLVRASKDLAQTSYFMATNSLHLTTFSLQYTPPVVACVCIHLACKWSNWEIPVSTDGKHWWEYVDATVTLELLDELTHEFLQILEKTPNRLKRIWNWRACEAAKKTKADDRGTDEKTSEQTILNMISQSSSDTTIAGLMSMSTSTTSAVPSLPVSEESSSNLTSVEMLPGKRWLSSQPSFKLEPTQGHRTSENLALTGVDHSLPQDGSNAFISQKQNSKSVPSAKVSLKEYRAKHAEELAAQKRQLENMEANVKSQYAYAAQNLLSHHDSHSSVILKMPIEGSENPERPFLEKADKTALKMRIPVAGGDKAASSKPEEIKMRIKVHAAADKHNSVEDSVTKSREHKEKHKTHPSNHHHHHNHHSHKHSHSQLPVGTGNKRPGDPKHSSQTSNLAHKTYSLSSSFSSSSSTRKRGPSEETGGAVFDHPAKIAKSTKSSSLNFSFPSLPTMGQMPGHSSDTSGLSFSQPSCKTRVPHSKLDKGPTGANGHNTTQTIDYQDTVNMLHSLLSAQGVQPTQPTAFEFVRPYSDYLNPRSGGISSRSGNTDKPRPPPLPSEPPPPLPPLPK
GST-cyclin T1 (481-630): residues 481-630 of O60563

No constants are given. Whether binding was seen depends on the method and setting. For some assays here: In cells and extracts the contact can be indirect. Some binding calls cover weakened binding; strength is not graded here.

Turning to “FLAG-Cdk9 (from UniProt P50750 1-372) (enzyme)”, in experiment [1], the binding result is recorded as “binds”.
In the case of “His-tagged Plk1 (from UniProt P53350 1-603) (enzyme)”, the binding result in [2], in [3] and in experiment [4] was “binds” in each case.
Take “endogenous Cdk9 (293T) (from UniProt P50750 1-372) (enzyme)”: the binding result is recorded as “binds” in experiment [5]; “binds” in experiment [6]; “binds” in experiment [7]; “binds” in [8]; “binds weakly” in experiment [9]; “binds” in experiment [10].
As for “endogenous Cdk9 (HeLa) (from UniProt P50750 1-372) (enzyme)”, the binding result in [11] is given as “binds”.

For the origin of these results see PMC3745420.
